This data set has as its system PnbHLH1 (Panax notoginseng). The data set is described as follows: EMSA. Conditions: EMSA kit (PIERCE) standard procedure, room temperature; salt and pH not stated; recombinant protein; protein details: His (pET-28a, NdeI/SalI); label: biotin. In general terms: A gel shift assay detects complexes by their altered migration in electrophoresis.

Construct, isoform or probe ends are uncertain for at least one entry. A negative result means that nothing was seen under these conditions.

As to “AATGATTATTTTGGGGAGATTATTTTGGGGAGATTATTGGGA (double strand) [mE-box mutant probe]”, the binding result is reported as “no binding”.

Source of the values: paper PMC6152055.
